Results taken from patent publication EP0646016B1, “SYNTHETIC PEPTIDES FOR THE TREATMENT OF MYASTHENIA GRAVIS” (YEDA RESEARCH AND DEVELOPMENT COMPANY, LTD., priority 1992, dated 1994).
At least one peptide structure holds a part that was inferred or is arguable (an end, a ring closure or a residue). Where no end group is shown, it is not given here.

Experiments:
[1] = system: T cell line TCBALB/c259-271; assay: Inhibition of the p259-271 specific proliferative response of the T cell line; assay type: cell-based, BALB/c mice; conditions: Fig. 2; result in words
TCSW 259-271 T cell line = conditions: reported by Brocke et al. (1990a); cited from earlier work
TCSW 195-212 line = conditions: reported by Brocke et al. (1990a); cited from earlier work

Molecule	inhibition of proliferation of T cells specific for peptide p259-271 [1]	inhibition of the proliferative response of the TCSW 259-271 T cell line (TCSW 259-271 T cell line)	inhibition of the specific proliferative response of the TCSW 195-212 line (TCSW 195-212 line)
CC[C@H](C)[C@H](NC(=O)[C@H](CC(=O)O)NC(=O)[C@H](CC(C)C)NC(=O)[C@H](Cc1ccc(O)cc1)NC(=O)[C@@H]1CCCN1C(=O)[C@@H](NC(=O)[C@@H](N)CC(=O)O)[C@@H](C)O)C(=O)N[C@H](C(=O)N[C@@H](Cc1ccc(O)cc1)C(=O)N[C@@H](Cc1c[nH]cn1)C(=O)N[C@@H](Cc1ccccc1)C(=O)N[C@H](C(=O)N[C@@H](CCSC)C(=O)N[C@@H](CCC(N)=O)C(=O)N[C@@H](CCCNC(=N)N)C(=O)N[C@@H](CC(C)C)C(=O)N1CCC[C@H]1C(=O)N[C@@H](CC(C)C)C(=O)O)C(C)C)[C@@H](C)O [p195-212]	competitively inhibit	inhibits	
VIVELIPSTSSAV [p259-271]			inhibits
